Data reported in paper PMC3819332.
Results are given in words; binding and its absence hold for the method and conditions named. Binding seen in cells or lysates may run through a third protein. Some binding calls cover weakened binding; strength is not graded here.

Chains of the proteins cited; added tags and fusions are not shown.
UniProt P43354: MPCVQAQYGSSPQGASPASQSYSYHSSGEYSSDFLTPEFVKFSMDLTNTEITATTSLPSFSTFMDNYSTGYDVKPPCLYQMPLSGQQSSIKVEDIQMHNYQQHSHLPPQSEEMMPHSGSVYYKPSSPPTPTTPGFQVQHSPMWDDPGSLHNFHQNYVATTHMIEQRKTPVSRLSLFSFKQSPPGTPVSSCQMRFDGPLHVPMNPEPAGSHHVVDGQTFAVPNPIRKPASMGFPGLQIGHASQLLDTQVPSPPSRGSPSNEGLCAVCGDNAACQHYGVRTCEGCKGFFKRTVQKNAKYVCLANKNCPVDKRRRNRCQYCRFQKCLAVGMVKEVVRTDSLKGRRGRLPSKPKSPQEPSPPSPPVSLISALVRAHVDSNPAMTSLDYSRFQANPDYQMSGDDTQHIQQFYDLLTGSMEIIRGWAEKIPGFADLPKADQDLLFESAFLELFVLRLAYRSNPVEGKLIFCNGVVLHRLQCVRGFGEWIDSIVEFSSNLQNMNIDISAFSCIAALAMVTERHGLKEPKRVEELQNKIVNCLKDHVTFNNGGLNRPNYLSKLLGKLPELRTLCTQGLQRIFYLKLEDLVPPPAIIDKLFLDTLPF
UniProt P09874: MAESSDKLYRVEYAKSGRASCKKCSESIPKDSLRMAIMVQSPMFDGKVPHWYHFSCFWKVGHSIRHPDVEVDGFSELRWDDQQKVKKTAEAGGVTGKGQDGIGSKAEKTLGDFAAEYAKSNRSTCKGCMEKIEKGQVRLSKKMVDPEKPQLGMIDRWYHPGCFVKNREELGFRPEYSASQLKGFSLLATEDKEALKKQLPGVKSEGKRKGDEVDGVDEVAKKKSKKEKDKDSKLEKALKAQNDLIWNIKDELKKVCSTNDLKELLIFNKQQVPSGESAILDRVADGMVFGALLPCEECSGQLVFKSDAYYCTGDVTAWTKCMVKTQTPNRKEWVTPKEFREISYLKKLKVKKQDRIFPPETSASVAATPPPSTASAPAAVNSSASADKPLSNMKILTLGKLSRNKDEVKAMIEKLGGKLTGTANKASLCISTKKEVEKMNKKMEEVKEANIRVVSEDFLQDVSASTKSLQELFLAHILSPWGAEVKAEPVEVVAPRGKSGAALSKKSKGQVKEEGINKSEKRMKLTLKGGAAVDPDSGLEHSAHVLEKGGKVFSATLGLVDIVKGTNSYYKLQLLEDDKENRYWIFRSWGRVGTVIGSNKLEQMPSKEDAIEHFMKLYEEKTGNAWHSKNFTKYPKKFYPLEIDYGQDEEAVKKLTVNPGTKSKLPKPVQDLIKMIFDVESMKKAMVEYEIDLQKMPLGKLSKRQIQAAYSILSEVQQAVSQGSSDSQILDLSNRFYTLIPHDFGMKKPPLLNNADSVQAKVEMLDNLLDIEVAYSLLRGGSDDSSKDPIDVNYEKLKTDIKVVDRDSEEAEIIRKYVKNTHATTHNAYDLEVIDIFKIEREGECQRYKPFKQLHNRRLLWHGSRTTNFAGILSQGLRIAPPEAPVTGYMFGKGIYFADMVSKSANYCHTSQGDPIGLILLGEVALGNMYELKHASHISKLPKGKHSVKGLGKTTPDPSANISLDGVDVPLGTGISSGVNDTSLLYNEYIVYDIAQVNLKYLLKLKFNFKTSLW

Target: NR4A2 nuclear receptor, MYC-tagged (MYC-NR4A2) (UniProt P43354)
Assay: co-IP; COS-1 cells transfected with MYC-NR4A2 and FLAG-PARP1, mock treated or UV irradiated; protein extracts collected 4 hours post UV; precipitated with anti-MYC antibody, immunoblotted with anti-FLAG antibody

PARP1, FLAG-tagged (FLAG-PARP1) (from UniProt P09874 1-1014)
binding: binds
